# Source: the supplement of paper PMC8728848
# The list shows a part of the results.
# B1: PGP3 (Chlamydia trachomatis), P0CE18 (protein)
# chain: MGNSGFYLYNTQNCVFADNIKVGQMTEPLKDQQIILGTTSTPVAAKMTASDGISLTVSNNPSTNASITIGLDAEKAYQLILEKLGDQILGGIADTIVDSTVQDILDKITTDPSLGLLKAFNNFPITNKIQCNGLFTPRNIETLLGGTEIGKFTVTPKSSGSMFLVSADIIASRMEGGVVLALVREGDSKPYAISYGYSSGVPNLCSLRTRIINTGLTPTTYSLRVGGLESGVVWVNALSNGNDILGITNTSNVSFLEVIPQTNA
# Experiments:
# Experiment in all cases: glycan array binding signal (z-score within array); higher = stronger binding
# Conditions in all cases: glycan notation: IUPAC condensed, linker removed
# [1] = molecular target: GalNAc(b1-6)GalNAc
# Procedure, shortened: (§1)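 Glycan array data were curated from 3228 arrays in the Consortium for Functional Glycomics database and kept only where the protein sequence was available. Glycan names were converted to IUPAC-condensed notation, and columns mapping to the same glycan were averaged. The binding signal is a within-array Z-score, averaged across arrays of the same protein sequence at different concentrations or buffers and across linkers. Negative Z-scores can be read as non-binding.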
# [2] = molecular target: Glc(a1-4)Glc
# Procedure, shortened: as §1
# [3] = molecular target: Glc(a1-4)Glc(a1-4)Glc(a1-4)Glc
# Procedure, shortened: as §1
# [4] = molecular target: Glc(a1-6)Glc(a1-6)Glc
# Procedure, shortened: as §1
# [5] = molecular target: Glc(a1-6)Glc(a1-6)Glc(a1-6)Glc
# Procedure, shortened: as §1
# [6] = molecular target: Glc(b1-4)Glc
# Procedure, shortened: as §1
# [7] = molecular target: Glc(b1-6)Glc
# Procedure, shortened: as §1
# [8] = molecular target: GlcA(b1-3)Gal
# Procedure, shortened: as §1
# [9] = molecular target: GlcA(b1-3)GlcNAc
# Procedure, shortened: as §1
# [10] = molecular target: GlcA(b1-6)Gal
# Procedure, shortened: as §1
# [11] = molecular target: GlcNAc(a1-3)Gal(b1-4)GlcNAc
# Procedure, shortened: as §1
# [12] = molecular target: GlcNAc(a1-4)Gal(b1-3)GlcNAc
# Procedure, shortened: as §1
# [13] = molecular target: GlcNAc(a1-4)Gal(b1-4)GalNAc
# Procedure, shortened: as §1
# [14] = molecular target: GlcNAc(a1-4)Gal(b1-4)GlcNAc
# Procedure, shortened: as §1
# [15] = molecular target: GlcNAc(a1-4)Gal(b1-4)GlcNAc(b1-3)Gal(b1-4)Glc
# Procedure, shortened: as §1
# [16] = molecular target: GlcNAc(a1-4)Gal(b1-4)GlcNAc(b1-3)Gal(b1-4)GlcNAc
# Procedure, shortened: as §1
# [17] = molecular target: GlcNAc(a1-4)Gal(b1-4)GlcNAc(b1-3)Gal(b1-4)GlcNAc(b1-3)Gal(b1-4)GlcNAc
# Procedure, shortened: as §1
# [18] = molecular target: GlcNAc(a1-4)Gal(b1-4)GlcNAc(b1-3)Gal(b1-4)[Fuc(a1-3)]GlcNAc(b1-3)Gal(b1-4)[Fuc(a1-3)]GlcNAc
# Procedure, shortened: as §1
# [19] = molecular target: GlcNAc(a1-6)Gal(b1-4)GlcNAc
# Procedure, shortened: as §1
# [20] = molecular target: GlcNAc(b1-2)Gal(b1-3)GalNAc
# Procedure, shortened: as §1
# [21] = molecular target: GlcNAc(b1-2)Man(a1-3)[GlcNAc(b1-2)Man(a1-6)]Man(b1-4)GlcNAc(b1-4)GlcNAc
# Procedure, shortened: as §1
# [22] = molecular target: GlcNAc(b1-2)Man(a1-3)[GlcNAc(b1-2)Man(a1-6)]Man(b1-4)GlcNAc(b1-4)[Fuc(a1-6)]GlcNAc
# Procedure, shortened: as §1
# [23] = molecular target: GlcNAc(b1-2)Man(a1-3)[GlcNAc(b1-4)][GlcNAc(b1-2)Man(a1-6)]Man(b1-4)GlcNAc(b1-4)GlcNAc
# Procedure, shortened: as §1
# [24] = molecular target: GlcNAc(b1-2)[GlcNAc(b1-4)]Man(a1-3)[GlcNAc(b1-2)Man(a1-6)]Man(b1-4)GlcNAc(b1-4)GlcNAc
# Procedure, shortened: as §1
# [25] = molecular target: GlcNAc(b1-2)[GlcNAc(b1-4)]Man(a1-3)[GlcNAc(b1-4)][GlcNAc(b1-2)Man(a1-6)]Man(b1-4)GlcNAc(b1-4)GlcNAc
# Procedure, shortened: as §1
# [26] = molecular target: GlcNAc(b1-2)[GlcNAc(b1-4)]Man(a1-3)[GlcNAc(b1-4)][GlcNAc(b1-2)[GlcNAc(b1-6)]Man(a1-6)]Man(b1-4)GlcNAc(b1-4)GlcNAc
# Procedure, shortened: as §1
# [27] = molecular target: GlcNAc(b1-2)[GlcNAc(b1-6)]Man(a1-6)[GlcNAc(b1-2)Man(a1-3)]Man(b1-4)GlcNAc(b1-4)GlcNAc
# Procedure, shortened: as §1
# [28] = molecular target: GlcNAc(b1-2)[GlcNAc(b1-6)]Man(a1-6)[GlcNAc(b1-2)Man(a1-3)][GlcNAc(b1-4)]Man(b1-4)GlcNAc(b1-4)GlcNAc
# Procedure, shortened: as §1
# [29] = molecular target: GlcNAc(b1-3)Gal
# Procedure, shortened: as §1
# [30] = molecular target: GlcNAc(b1-3)Gal(b1-3)GalNAc
# Procedure, shortened: as §1
# [31] = molecular target: GlcNAc(b1-3)Gal(b1-4)Glc
# Procedure, shortened: as §1
# [32] = molecular target: GlcNAc(b1-3)Gal(b1-4)GlcNAc
# Procedure, shortened: as §1
# [33] = molecular target: GlcNAc(b1-3)Gal(b1-4)GlcNAc(b1-3)Gal(b1-4)GlcNAc
# Procedure, shortened: as §1
# [34] = molecular target: GlcNAc(b1-3)GalNAc
# Procedure, shortened: as §1
# [35] = molecular target: GlcNAc(b1-3)Man
# Procedure, shortened: as §1
# [36] = molecular target: GlcNAc(b1-3)[GlcNAc(b1-4)][GlcNAc(b1-6)]GlcNAc
# Procedure, shortened: as §1
# [37] = molecular target: GlcNAc(b1-3)[GlcNAc(b1-6)]Gal(b1-4)GlcNAc
# Procedure, shortened: as §1
binder,measurement,setting,value
B1,glycan array binding signal (z-score),[1],0.114
same,glycan array binding signal (z-score),[2],-0.334
same,glycan array binding signal (z-score),[3],0.478
same,glycan array binding signal (z-score),[4],-0.679
same,glycan array binding signal (z-score),[5],0.029
same,glycan array binding signal (z-score),[6],-0.619
same,glycan array binding signal (z-score),[7],-1.12
same,glycan array binding signal (z-score),[8],-0.25
same,glycan array binding signal (z-score),[9],-0.301
same,glycan array binding signal (z-score),[10],0.571
same,glycan array binding signal (z-score),[11],-0.427
same,glycan array binding signal (z-score),[12],-1.85
same,glycan array binding signal (z-score),[13],0.374
same,glycan array binding signal (z-score),[14],0.292
same,glycan array binding signal (z-score),[15],-0.567
same,glycan array binding signal (z-score),[16],1.53
same,glycan array binding signal (z-score),[17],-0.435
same,glycan array binding signal (z-score),[18],0.557
same,glycan array binding signal (z-score),[19],-0.513
same,glycan array binding signal (z-score),[20],0.544
same,glycan array binding signal (z-score),[21],-0.357
same,glycan array binding signal (z-score),[22],-0.708
same,glycan array binding signal (z-score),[23],0.515
same,glycan array binding signal (z-score),[24],0.569
same,glycan array binding signal (z-score),[25],0.875
same,glycan array binding signal (z-score),[26],0.351
same,glycan array binding signal (z-score),[27],0.545
same,glycan array binding signal (z-score),[28],0.951
same,glycan array binding signal (z-score),[29],0.03
same,glycan array binding signal (z-score),[30],-0.07
same,glycan array binding signal (z-score),[31],-0.92
same,glycan array binding signal (z-score),[32],-0.086
same,glycan array binding signal (z-score),[33],-1.52
same,glycan array binding signal (z-score),[34],-0.558
same,glycan array binding signal (z-score),[35],-1.25
same,glycan array binding signal (z-score),[36],-1.18
same,glycan array binding signal (z-score),[37],-2.01

# Pulled one by one from above:
binder,measurement,setting,value
B1,glycan array binding signal (z-score),[20],0.544
same,glycan array binding signal (z-score),[8],-0.25
